Test results published in publication PMC6545562, “Slx5/Slx8‐dependent ubiquitin hotspots on chromatin contribute to stress tolerance” (The EMBO Journal, 2019).
Where a chain is given by its changes, count along the chain named. In names and notes the source's numbering stands. No constants are given. Whether binding was seen depends on the method and setting. Some binding calls cover weakened binding; strength is not graded here. Sequences can lack the tags named with a protein. Values belong to the binder of their own block, whether it stands above or below them.

How the values were obtained:
[1] = target: T1, Euc1 (Ymr111c), yeast two-hybrid fusion (S. cerevisiae) (UniProt Q04461); test: two-hybrid; reporter strain PJ69-7a with Gal4-BD and Gal4-AD fusion constructs; spotted on control or selective media (- His), grown 3 and 6 days
T1 sequence: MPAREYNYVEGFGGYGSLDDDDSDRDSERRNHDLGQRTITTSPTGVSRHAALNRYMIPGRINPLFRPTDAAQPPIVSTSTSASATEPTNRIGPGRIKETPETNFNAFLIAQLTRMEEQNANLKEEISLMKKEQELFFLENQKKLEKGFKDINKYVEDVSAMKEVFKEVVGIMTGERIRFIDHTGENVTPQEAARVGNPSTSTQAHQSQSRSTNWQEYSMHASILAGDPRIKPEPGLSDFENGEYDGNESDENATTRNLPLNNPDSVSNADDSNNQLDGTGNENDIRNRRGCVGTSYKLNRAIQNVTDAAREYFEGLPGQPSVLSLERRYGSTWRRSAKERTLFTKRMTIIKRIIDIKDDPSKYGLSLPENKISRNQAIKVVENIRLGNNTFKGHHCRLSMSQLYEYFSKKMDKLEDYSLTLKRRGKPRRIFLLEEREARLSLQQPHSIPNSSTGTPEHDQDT

[2] = target: T1, Euc1 (Ymr111c), yeast two-hybrid fusion (S. cerevisiae); test: two-hybrid; Euc1 dimerization in Y2H (Appendix Fig S5C, D and S6B); details not shown
[3] = target: T2, BD-Slx5, yeast two-hybrid fusion (S. cerevisiae) (UniProt P32828); test: two-hybrid; Euc1 constructs against BD-Slx5 constructs, performed as in Fig 4A; serial dilutions spotted, 30°C, 2 to 4 days
T2 sequence: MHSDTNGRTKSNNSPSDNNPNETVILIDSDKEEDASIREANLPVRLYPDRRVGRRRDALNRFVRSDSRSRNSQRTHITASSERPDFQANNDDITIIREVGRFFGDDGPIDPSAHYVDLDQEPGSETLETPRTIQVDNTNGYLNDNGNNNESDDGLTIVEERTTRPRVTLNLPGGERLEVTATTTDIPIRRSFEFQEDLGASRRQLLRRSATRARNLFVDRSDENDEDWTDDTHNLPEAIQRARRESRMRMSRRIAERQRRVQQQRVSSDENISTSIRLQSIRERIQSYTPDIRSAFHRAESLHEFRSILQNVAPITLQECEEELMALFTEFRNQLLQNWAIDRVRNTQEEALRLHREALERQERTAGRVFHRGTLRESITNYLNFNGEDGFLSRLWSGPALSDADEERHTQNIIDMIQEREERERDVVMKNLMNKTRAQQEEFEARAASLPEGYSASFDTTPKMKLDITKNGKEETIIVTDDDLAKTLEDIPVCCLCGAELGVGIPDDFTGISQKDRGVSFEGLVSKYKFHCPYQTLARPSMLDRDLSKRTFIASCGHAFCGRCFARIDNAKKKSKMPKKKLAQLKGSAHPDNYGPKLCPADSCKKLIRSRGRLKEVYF

[4] = target: T3, BD-Slx5-RING∆ (S. cerevisiae) (UniProt P32828); test: as above
T3 sequence: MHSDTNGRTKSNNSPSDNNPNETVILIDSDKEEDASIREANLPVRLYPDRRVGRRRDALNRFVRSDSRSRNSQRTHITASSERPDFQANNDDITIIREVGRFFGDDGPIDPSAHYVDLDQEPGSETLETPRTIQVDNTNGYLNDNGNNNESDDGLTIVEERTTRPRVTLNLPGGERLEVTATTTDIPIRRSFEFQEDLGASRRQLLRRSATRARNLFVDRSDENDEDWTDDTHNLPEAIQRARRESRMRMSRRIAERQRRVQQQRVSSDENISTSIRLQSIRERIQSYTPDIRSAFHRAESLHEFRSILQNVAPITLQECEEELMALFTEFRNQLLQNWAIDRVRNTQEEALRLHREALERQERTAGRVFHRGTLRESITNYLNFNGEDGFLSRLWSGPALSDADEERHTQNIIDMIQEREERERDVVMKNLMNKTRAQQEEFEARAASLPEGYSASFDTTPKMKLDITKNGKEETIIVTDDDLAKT

[5] = target: AD-Euc1 81-183 (S. cerevisiae) (UniProt Q04461); test: two-hybrid; Euc1 dimerization in Y2H (Appendix Fig S5C, D and S6B); details not shown
[6] = target: T4, BD-Slx5-Md (Slx5 middle domain, aa 201-335) (S. cerevisiae) (UniProt P32828); test: two-hybrid; Euc1 constructs against BD-Slx5 constructs, performed as in Fig 4A; serial dilutions spotted, 30°C, 2 to 4 days
T4 sequence: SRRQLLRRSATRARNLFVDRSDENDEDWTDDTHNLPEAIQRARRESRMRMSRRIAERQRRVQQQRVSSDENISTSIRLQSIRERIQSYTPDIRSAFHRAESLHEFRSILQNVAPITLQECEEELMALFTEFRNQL

[7] = target: AD-Euc1 81-183 SBM2 (S. cerevisiae) (UniProt Q04461); test: two-hybrid; Euc1 dimerization in Y2H (Appendix Fig S5C, D and S6B); details not shown
[8] = target: AD-Euc1 81-183 SBM1 (S. cerevisiae) (UniProt Q04461); test: as above

binding [1]: binds
B1: Siz2, yeast two-hybrid fusion (enzyme, UniProt Q12216 1-726)
chain: MASVMSNNNNNNNNNNASYMFTNPLSNTGGGLINEIKDAINEMEQLKVLELKQICKSLDLSITGKKAVLQDRIKQFLRKSCDIGHIDPWRPKAIKILIAKVRINSSLPKYSTLWETLKTGAFKHPVASGQLPVTALQSTALPPYSQQQALAYSFTSPFYKPIVQIPDANKKLKQSAGRGCTKMKFKVSKSNHDLLKSNKSYKLYLFSGFSIPFIYETVGHEAIDFPYPCELVFNGTKLEDNVKGLKKQNGTGNPANLTPYLKVPTEMNHLDLHYLNIDKEYSISCFIVEVFSPEALLGKILKRPKIIKQATTAYIKRTLNEQDDDDIITTSTVLSLQCPISCTRMKYPAKTDQCKHIQCFDALWFLHSQSQVPTWQCPICQHPIKFDQLKISEFVDNIIQNCNEDVEQVEISVDGSWKPIHNSSAVITDTVNQNHSVKNENQGTVKQEQDYDSRNAFDTNLRNGSNHNEPEIISLDSSDDEAFIPASKSFPTHVNPRNDQLRADIFPSESEGSSDYNPNHTSTPKGSPTMDQDNYQDAFQMRSFLNQGATTNINDTPTNNSSINSFVTATNGDSRIFYNRGPSTPLLPAVLQNLTNQTEAQRNPYGPNYNTTAQDRNLLGIEGDLPPIPPVDPNSEAETELPTRTTSAAHLPPYIHVSTSGHGDDGKIRKRRHSNVSIYIPKNPYATLMKRRPQANHAIMNKTLAQTNDFNTSAQDNSEVVDLTSD

binding [2]: binds
binding [3]: binds
binding [4]: binds
B2: Euc1 (Ymr111c), yeast two-hybrid fusion (protein, UniProt Q04461 1-462)
chain: T1 sequence

binding [4]: binds
B3: Euc1-KR (K231R), yeast two-hybrid fusion (protein, UniProt Q04461 1-462)
chain: T1 sequence with K231R

binding [1]: binds
B7: Ubc9, yeast two-hybrid fusion (enzyme, UniProt P50623 1-157)
chain: MSSLCLQRLQEERKKWRKDHPFGFYAKPVKKADGSMDLQKWEAGIPGKEGTNWAGGVYPITVEYPNEYPSKPPKVKFPAGFYHPNVYPSGTICLSILNEDQDWRPAITLKQIVLGVQDLLDSPNPNSPAQEPAWRSFSRNKAEYDKKVLLQAKQYSK

binding [1]: binds
B8: Siz1, yeast two-hybrid fusion (enzyme, UniProt Q04195 1-904)
chain: MINLEDYWEDETPGPDREPTNELRNEVEETITLMELLKVSELKDICRSVSFPVSGRKAVLQDLIRNFLQNALVVGKSDPYRVQAVKFLIERIRKNEPLPVYKDLWNALRKGTPLSAITVRSMEGPPTVQQQSPSVIRQSPTQRRKTSTTSSTSRAPPPTNPDASSSSSSFAVPTIHFKESPFYKIQRLIPELVMNVEVTGGRGMCSAKFKLSKADYNLLSNPNSKHRLYLFSGMINPLGSRGNEPIQFPFPNELRCNNVQIKDNIRGFKSKPGTAKPADLTPHLKPYTQQNNVELIYAFTTKEYKLFGYIVEMITPEQLLEKVLQHPKIIKQATLLYLKKTLREDEEMGLTTTSTIMSLQCPISYTRMKYPSKSINCKHLQCFDALWFLHSQLQIPTWQCPVCQIDIALENLAISEFVDDILQNCQKNVEQVELTSDGKWTAILEDDDDSDSDSNDGSRSPEKGTSVSDHHCSSSHPSEPIIINLDSDDDEPNGNNPHVTNNHDDSNRHSNDNNNNSIKNNDSHNKNNNNNNNNNNNNNDNNNSIENNDSNSNNKHDHGSRSNTPSHNHTKNLMNDNDDDDDDRLMAEITSNHLKSTNTDILTEKGSSAPSRTLDPKSYNIVASETTTPVTNRVIPEYLGNSSSYIGKQLPNILGKTPLNVTAVDNSSHLISPDVSVSSPTPRNTASNASSSALSTPPLIRMSSLDPRGSTVPDKTIRPPINSNSYTASISDSFVQPQESSVFPPREQNMDMSFPSTVNSRFNDPRLNTTRFPDSTLRGATILSNNGLDQRNNSLPTTEAITRNDVGRQNSTPVLPTLPQNVPIRTNSNKSGLPLINNENSVPNPPNTATIPLQKSRLIVNPFIPRRPYSNVLPQKRQLSNTSSTSPIMGTWKTQDYGKKYNSG

More lines, now with the values behind:

B4: AD-Euc1 81-183 (domain or fragment, UniProt Q04461 81-183)
chain: SASATEPTNRIGPGRIKETPETNFNAFLIAQLTRMEEQNANLKEEISLMKKEQELFFLENQKKLEKGFKDINKYVEDVSAMKEVFKEVVGIMTGERIRFIDHT
binding [5]: binds
binding [3]: binds
binding [6]: binds
binding [4]: binds

B5: AD-Euc1 81-183 SBM2 (domain or fragment, UniProt Q04461 81-183)
chain: B4 chain with K82A, E83A, V84A, F85A
binding [7]: binds

B6: AD-Euc1 81-183 SBM1 (domain or fragment, UniProt Q04461 81-183)
chain: B4 chain with E59A, Q61A, K62A, K63A
binding [8]: binds

B9: Euc1 1-140, yeast two-hybrid fusion (domain or fragment, UniProt Q04461 1-140)
chain: MPAREYNYVEGFGGYGSLDDDDSDRDSERRNHDLGQRTITTSPTGVSRHAALNRYMIPGRINPLFRPTDAAQPPIVSTSTSASATEPTNRIGPGRIKETPETNFNAFLIAQLTRMEEQNANLKEEISLMKKEQELFFLEN
binding [4]: no binding
